Data reported in publication PMC7819943, “Rice protein-binding microarrays: a tool to detect cis-acting elements near promoter regions in rice”.
Some of the results follow.

molecular target: T1, OsSMF1 (Oryza sativa, UniProt Q6ZLB0 1-436); experiment: protein-binding microarray (RPBM); PBS, 2% BSA, 51.3 ng/ul salmon testes DNA, 50 uM zinc acetate, 200 nM TF, 25 C, 1 h; high values mean tight binding; conditions: protein: recombinant; tags: N-terminal polyhistidine and DsRed monomer fusion (pET32a); chain copies: 2; label: CyDye5-dUTP incorporated in the synthesized complementary strand; 3' TTTTT single-stranded linker to array surface; dsDNA, one strand shown
T1 sequence: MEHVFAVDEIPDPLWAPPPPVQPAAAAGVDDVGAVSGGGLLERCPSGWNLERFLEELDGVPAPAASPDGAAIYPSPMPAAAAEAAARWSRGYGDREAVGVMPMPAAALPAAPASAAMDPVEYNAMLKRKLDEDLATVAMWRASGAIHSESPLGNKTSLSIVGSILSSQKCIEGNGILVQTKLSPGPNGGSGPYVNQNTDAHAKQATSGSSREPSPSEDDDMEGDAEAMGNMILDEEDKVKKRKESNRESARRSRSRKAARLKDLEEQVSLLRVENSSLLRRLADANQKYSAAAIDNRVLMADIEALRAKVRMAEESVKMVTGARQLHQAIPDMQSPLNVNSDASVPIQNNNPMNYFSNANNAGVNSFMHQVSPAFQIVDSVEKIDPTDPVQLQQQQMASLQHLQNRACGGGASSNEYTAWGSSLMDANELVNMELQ
Method in brief: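 Per-feature fluorescence intensity (arbitrary units), read on an Axon 4000B scanner, is the binding signal. Transcription factors carrying an N-terminal polyhistidine tag and DsRed fusion were expressed in E. coli BL21-CodonPlus and purified on Ni–NTA. A custom Agilent array, made double-stranded by primer extension with Cy5-dUTP and blocked with 2% BSA, was incubated with 200 nM protein in PBS, 2% BSA, salmon testes DNA and 50 µM zinc acetate at 25 °C for 1 h and then washed.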

Sequence	binding signal
GCAGCACAAAAGTTCATTCCTCCCTTTCTCTTTGCAGGCACGGAGTCACCTAGTGCAG	16100 fluorescence intensity (a.u.)
CACATGATACCTCGCGAGTATCACGCGATACGTGGTAGAACGGAGTCACCTAGTGCAG	3400 fluorescence intensity (a.u.)
CAGCAGATGAGTGGCTGGTTAGCTGGACAGGAGTCACAGGCGGAGTCACCTAGTGCAG	3360 fluorescence intensity (a.u.)
GAGGTAACGTGATAACGTCATCATAGCATCATCGCTGACACGGAGTCACCTAGTGCAG	4180 fluorescence intensity (a.u.)
CGACGACCACCACCTACCCCACCGATGACGCCGTCCGCCACGGAGTCACCTAGTGCAG	4700 fluorescence intensity (a.u.)
GCGAGAAATTAAAATTTCCCATTGGTTAAGGCAGACACGACGGAGTCACCTAGTGCAG	3620 fluorescence intensity (a.u.)
CTCCGTCGCCTTTCCACGTGCCACCATGGATGACGACCATCGGAGTCACCTAGTGCAG	5510 fluorescence intensity (a.u.)
ACTATATACAACTAGTCATGCACCCTGCAGGTTGACTTTACGGAGTCACCTAGTGCAG	25200 fluorescence intensity (a.u.)
GATAGGGTTTCTCATAGATGATGTGGTAGTTGATTTAGACCGGAGTCACCTAGTGCAG	3940 fluorescence intensity (a.u.)
GCACGAGTGGATCAGGTCAAATATCCACGTCAGCCAAACCCGGAGTCACCTAGTGCAG	18000 fluorescence intensity (a.u.)
TGATCTGCTCAACTTCAACAAGACCCATGGTGACCATGTCCGGAGTCACCTAGTGCAG	3180 fluorescence intensity (a.u.)
TATATATACCACGTCTAGCACTAGTCATCTCGATCTTGGGCGGAGTCACCTAGTGCAG	4840 fluorescence intensity (a.u.)
ACTTAAGTGTTAGTGTATTGTGTATAGTGGTTAGAGCCCGCGGAGTCACCTAGTGCAG	19000 fluorescence intensity (a.u.)
AGACCAAGAAGTCTACACAATGTCAGTATCTCTATTGTAGCGGAGTCACCTAGTGCAG	11200 fluorescence intensity (a.u.)
TGCACCCGGAAAGAATTTCCCGATCGGTCACCCATCCCAACGGAGTCACCTAGTGCAG	4100 fluorescence intensity (a.u.)
AATTTTCAAGGAAAAGGATTGCGGTGACGAGGATAATTTGCGGAGTCACCTAGTGCAG	3620 fluorescence intensity (a.u.)
ATATATATTTTCTAATGGAGCATTTAGCACATTCGGTTTACGGAGTCACCTAGTGCAG	21500 fluorescence intensity (a.u.)
CCTCTGGCATCCATTATTGAGTTTATTAATCCTCCATCCTCGGAGTCACCTAGTGCAG	26300 fluorescence intensity (a.u.)
TTGTGATGTCCACGTATTCAGGATTAGACCACAGGCCCGGCGGAGTCACCTAGTGCAG	8170 fluorescence intensity (a.u.)
ACAAACACCACCGACGTTGCCATCGTCACGGTACCAGACTCGGAGTCACCTAGTGCAG	4830 fluorescence intensity (a.u.)
TAAGGTGGTTGGACGGTTAGCATCTTCCTCCTCAAGCTGACGGAGTCACCTAGTGCAG	3290 fluorescence intensity (a.u.)

Sequence	binding signal
AGCCCACTTAACATTAACGAGCCACGCTTACGTTTCTTGGCGGAGTCACCTAGTGCAG	3290 fluorescence intensity (a.u.)
AAAAGGCCCTCCAGTGGGCCTGGGGCATCTGACGTGTCAACGGAGTCACCTAGTGCAG	16200 fluorescence intensity (a.u.)
TTCGCTAATACTTAGATACGTCGTTCGTATTTCAGTCTGTCGGAGTCACCTAGTGCAG	24200 fluorescence intensity (a.u.)
TGCACCTAGGTGTACATGTCATTGTGTGTTTGTGGTTGGTCGGAGTCACCTAGTGCAG	4630 fluorescence intensity (a.u.)
GCTACTGAGCGTACTACCATGTTCTTAAAGGTGATGCAGACGGAGTCACCTAGTGCAG	3540 fluorescence intensity (a.u.)
ACGCGCGGCCTAGTTGTGTGTGGGTGTGTGAGGTGAGGGGCGGAGTCACCTAGTGCAG	3480 fluorescence intensity (a.u.)
CGGAGTCTGACTCGGACTCTGCTGGTCAGACTGGCTACATCGGAGTCACCTAGTGCAG	5090 fluorescence intensity (a.u.)
CACATGGGCCCGCTTGACAGCCCTAGCAGAGAGAATCTCACGGAGTCACCTAGTGCAG	32000 fluorescence intensity (a.u.)
ATATCAAATTTTCTTCCTGTTAATCAGAATAAGAGGTCAACGGAGTCACCTAGTGCAG	36300 fluorescence intensity (a.u.)
TTTTATACTATATATGAAAGTTGACAGAATGACAGGCTTTCGGAGTCACCTAGTGCAG	3740 fluorescence intensity (a.u.)
AAGACAAATGAAGATGCGATGACGTGAATACCCGGTAGGACGGAGTCACCTAGTGCAG	5020 fluorescence intensity (a.u.)
CATCTTGTTACAGCTATGTGATACACTTGTACTTGGCAGACGGAGTCACCTAGTGCAG	3570 fluorescence intensity (a.u.)
TTCACATCGTTGCAATAAATAATTATACCACTACTTCATACGGAGTCACCTAGTGCAG	24800 fluorescence intensity (a.u.)
TCCTACGTGACATTTACGTGTCATGTCATATGAATATTCCCGGAGTCACCTAGTGCAG	9290 fluorescence intensity (a.u.)
CTCGGTGTCGTCATCGTGTTTGGATCTCCTATGACGTTTTCGGAGTCACCTAGTGCAG	4490 fluorescence intensity (a.u.)
CCGGTCTGACTGCTGCACGAGCAACCCGACTCGATGGATCCGGAGTCACCTAGTGCAG	3230 fluorescence intensity (a.u.)
CGCCCGTACGCCACCGATGCGCCCACCGCCGTCGCCCACACGGAGTCACCTAGTGCAG	4140 fluorescence intensity (a.u.)
GAGGAGGAGGAGGAGGAGGAGTCACCTGCGACGCCGTCGCCGGAGTCACCTAGTGCAG	4400 fluorescence intensity (a.u.)
CTAGAGCTCTACTGTCATCAACTACTCGATCGATCGAACCCGGAGTCACCTAGTGCAG	4360 fluorescence intensity (a.u.)
TTATACATTGATGTAACGCGTTAATACTGATAAATATGCACGGAGTCACCTAGTGCAG	14300 fluorescence intensity (a.u.)
CAACCCTACCTCGCTTCTCTCACCAGTCACCACCACTTGGCGGAGTCACCTAGTGCAG	4230 fluorescence intensity (a.u.)

Sequence	binding signal
GAGCTCGGCACCAGAGATGAACGCCGTGTGGCGTGGCGACCGGAGTCACCTAGTGCAG	3710 fluorescence intensity (a.u.)
TGCGTTCTGGTTCGTCCACCCTGTGCAAGCTTGTGTCATGCGGAGTCACCTAGTGCAG	3330 fluorescence intensity (a.u.)
AGCGCGGTCCAGCTGGACCTAGCAGGTGGGCAAAACAGTACGGAGTCACCTAGTGCAG	3620 fluorescence intensity (a.u.)
CTGGGCCTCCCCACCGACACGCTGGGCTGGCCCGGCACGACGGAGTCACCTAGTGCAG	28200 fluorescence intensity (a.u.)
AGGGCCCCACACGTCAGTGACTTATTCGTCGGATAAGGACCGGAGTCACCTAGTGCAG	5800 fluorescence intensity (a.u.)
GGGCCCCGCAGGCGCAGGCGCAGCGGTACGCCGTCGTCGGCGGAGTCACCTAGTGCAG	54200 fluorescence intensity (a.u.)
CCAATGCACTTTAAGCCTCATCTGAATCTTTTGATAGGCCCGGAGTCACCTAGTGCAG	25700 fluorescence intensity (a.u.)
GTGGTAGAAGCTATATTGTCACTGTGGTCGTCATTGTAGTCGGAGTCACCTAGTGCAG	3650 fluorescence intensity (a.u.)
CGTGGCAATATTGTTATTGCACATGACTATATTATGGTCACGGAGTCACCTAGTGCAG	4390 fluorescence intensity (a.u.)
AAGTTATCACGATGTTCACGATGCCGGAGGATATCATTTCCGGAGTCACCTAGTGCAG	3140 fluorescence intensity (a.u.)
GTGGGGAGGGGAGGTGGGTCGCCGAAAGCTTGGCTGAGATCGGAGTCACCTAGTGCAG	7750 fluorescence intensity (a.u.)
GTGGCTGACAGTGCTGGTTGCTGGTTCCCTTCTTCCTCCGCGGAGTCACCTAGTGCAG	4170 fluorescence intensity (a.u.)
GCCGGCCATGCCAGCCGCGCGATCGACGTGCCACTGAACGCGGAGTCACCTAGTGCAG	4420 fluorescence intensity (a.u.)
AAGCCTCGTAGGTGTTCGTCCAGCCGCGACACGACACGACCGGAGTCACCTAGTGCAG	3300 fluorescence intensity (a.u.)
GATCGAGTCCAGCTGACGCACTCAAACAGACGAAATCAACCGGAGTCACCTAGTGCAG	3580 fluorescence intensity (a.u.)
GGGGTGAAGAAGAAGGGTAAGGTGGCTGACATATGGGACCCGGAGTCACCTAGTGCAG	3410 fluorescence intensity (a.u.)
GTGTGCTTTCCTGCTGCGTGTGGTGCTATTATTGCTAGTCCGGAGTCACCTAGTGCAG	3140 fluorescence intensity (a.u.)
CGGGTGGTTTGCATCAGAGGCCACGTCGGACTACACGATCCGGAGTCACCTAGTGCAG	11300 fluorescence intensity (a.u.)
TACGCCCACGGCCCACCGACACGTGGGCCCCACGACCCAGCGGAGTCACCTAGTGCAG	9700 fluorescence intensity (a.u.)
CCTCTCCTCGTCCGCCGGCGATGCGCCGGCGCCGGCGCAGCGGAGTCACCTAGTGCAG	3200 fluorescence intensity (a.u.)
TCATTTATCTTTCTTCCATGTAAGCAAATTTGTCTAGGTGCGGAGTCACCTAGTGCAG	3280 fluorescence intensity (a.u.)

Pulled one by one from above:
Sequence	binding signal
CGTGGCAATATTGTTATTGCACATGACTATATTATGGTCACGGAGTCACCTAGTGCAG	4390 fluorescence intensity (a.u.)
CCTCTCCTCGTCCGCCGGCGATGCGCCGGCGCCGGCGCAGCGGAGTCACCTAGTGCAG	3200 fluorescence intensity (a.u.)
CTGGGCCTCCCCACCGACACGCTGGGCTGGCCCGGCACGACGGAGTCACCTAGTGCAG	28200 fluorescence intensity (a.u.)

(continued)

Sequence	binding signal
CTCTTCCATTTGTTCCATTGTCATGCTTGCGTAATCTCAGCGGAGTCACCTAGTGCAG	3140 fluorescence intensity (a.u.)
AAGTCGTTTGTACGATGGCATTTCTTAGAACTCATATTTGCGGAGTCACCTAGTGCAG	4970 fluorescence intensity (a.u.)
TTCACCTTGTGTTGCCACGTAGGCAAAATTGACAAAGAGACGGAGTCACCTAGTGCAG	7720 fluorescence intensity (a.u.)
ACAAAATTTATTTCCAGGTGGCGTCTCCTCATTGGCCAGCCGGAGTCACCTAGTGCAG	4370 fluorescence intensity (a.u.)
CTGTCAACAATCATCGAATCATAGCGCCAACACACCCACCCGGAGTCACCTAGTGCAG	3360 fluorescence intensity (a.u.)
AAGGATTAACAAACCAGCTATGCTCTCATTGGATGTACTACGGAGTCACCTAGTGCAG	3480 fluorescence intensity (a.u.)
ACCTGCCGCCGCTGCCGCATCCGCCGCCACCACGACCAACCGGAGTCACCTAGTGCAG	3860 fluorescence intensity (a.u.)
CCCAAATCCCACTTCCCACAGCCAAACTTTCATACAAACGCGGAGTCACCTAGTGCAG	21200 fluorescence intensity (a.u.)
ATTCCCTCGTTTTGTGTATGTCGTTCAAAGAGTCATCAAACGGAGTCACCTAGTGCAG	3540 fluorescence intensity (a.u.)
TTCTTCGGTTATTATACTGTAATAAAATGTCAAGCTGGCGCGGAGTCACCTAGTGCAG	4000 fluorescence intensity (a.u.)
TCACCAAAATCAACATGAACTGATCAGTTCTTGTCCAGTACGGAGTCACCTAGTGCAG	5230 fluorescence intensity (a.u.)
GCGGGCAGGCGGCGCCAGCCGTGACGCGGGTGGTCCGGGTCGGAGTCACCTAGTGCAG	4420 fluorescence intensity (a.u.)
CCTCGATTCCTCGTGATCTCGGGATCGTCCGCGTGGATATCGGAGTCACCTAGTGCAG	3330 fluorescence intensity (a.u.)
CGGACGGCGAGAAACGCATTGTCACTGTCACATCGTCGTCCGGAGTCACCTAGTGCAG	3270 fluorescence intensity (a.u.)
GGATGAACTGTCAGCATTTTGATTAGTTTTAAAATGTCAGCGGAGTCACCTAGTGCAG	4290 fluorescence intensity (a.u.)
CCCAAATTTAGTTGGAGACACGTAACCCGCTCAAAGCGCCCGGAGTCACCTAGTGCAG	7400 fluorescence intensity (a.u.)
ATGCTGCGATGCAAGTGACATCCTGCCAGCGCCAGGATTTCGGAGTCACCTAGTGCAG	3340 fluorescence intensity (a.u.)
GGCACCGCGCGGAAGGGGAAGAGGCGGCGACGAGAGTATTCGGAGTCACCTAGTGCAG	27500 fluorescence intensity (a.u.)
TGCTGGGAAGCTCATGTCGAAAAGATAAACGTGAACTGAACGGAGTCACCTAGTGCAG	14100 fluorescence intensity (a.u.)
TCGTCGAGCTGGGCCGAGCGGCGCGGCTCGTGCGCGACGGCGGAGTCACCTAGTGCAG	3350 fluorescence intensity (a.u.)
CGCATCCCGGCCCATCCGCCTCGTCAGCGGCGGCGCACCACGGAGTCACCTAGTGCAG	10800 fluorescence intensity (a.u.)
